Source: the supplement of paper PMC8551327
“And” between values parts separate entries of the source, which are not always exact repeats. Equal values may be shown once. Where a name gives a salt, the structure may show the parent alone. Some of the results follow. Rule as the data show it: active = 1.25 or more and inactive = the rest. Repeats are few or missing, and single values can be far off.

System: Kcc2-LUC knock-in mouse primary cortical neurons (Kcc2 promoter reporter)
Assay: Kcc2 promoter-driven luciferase activity relative to vehicle control (fold of vehicle (ratio)); higher = stronger Kcc2 promoter activation (Kcc2 expression enhancer)
Conditions: 100 nM; 48 h

Compound	Kcc2 promoter-driven luciferase activity
CCN1C[C@]2(COC)[C@H](O)C[C@H](OC)[C@@]34[C@@H]5C[C@@]6(O)[C@H](OC(=O)c7ccccc7)[C@@H]5[C@@](OC(C)=O)([C@@H]([C@H](OC)[C@H]23)[C@@H]14)[C@@H](O)[C@@H]6OC [Aconitine]	inactive: 0.77
CCCCCC1=C/C(=C/c2[nH]c(-c3ccc[nH]3)cc2OC)N=C1C [Prodigiosin]	inactive: 1.01
CC(C)c1oc(=O)cc2c1[C@@H](O)[C@H]1OC(=O)[C@@]3(C)[C@@H](O)[C@H]4O[C@H]4[C@@]2(C)[C@@H]13 [Nagilactone C]	inactive: 1.09
O=[N+]([O-])c1ccc2c(c1)/C(=N/N=C1c3ccccc3Cc3ccccc31)c1cc([N+](=O)[O-])cc([N+](=O)[O-])c1-2	active: 1.25
COc1cc2c(cc1O)N=CC1CCC(O)N1C2=O (centres undefined) [Neothramycin A and neothramycin B]	inactive: 0.86
C[C@]12C(=O)C=CCC1=CC[C@@H]1[C@@H]2CC[C@]2(O)C(=O)O[C@@]3(C)[C@H]4C[C@]5(C)[C@@H](CO[C@@]16O[C@@]32[C@H]5C6=O)C(=O)O4 [Physalin B]	inactive: 1.22
Cc1c2ccncc2c(C)c2c1[nH]c1ccccc12 [Ellipticine]	inactive: 0.52
O=C([CH-]C(=O)C(F)(F)F)c1ccccc1.O=C([CH-]C(=O)C(F)(F)F)c1ccccc1.O=C([CH-]C(=O)C(F)(F)F)c1ccccc1.O=C([CH-]C(=O)C(F)(F)F)c1ccccc1.[Eu+3].c1ccncc1 [Piperidinium europium benzoyl trifluoroacetonate]	inactive: 0.25
O=C1C=C2C=CC3CC2(O1)C1CCCCN31 (centres undefined) [Virosecurinine]	inactive: 0.6 and inactive: 1.19
COc1ccc(C[C@@H]2NC[C@@H](O)[C@@H]2OC(C)=O)cc1	inactive: 1.17
CCCC/C=C/C=C/C=C/CCCCCCCC(=O)OCC(COC(=O)CCCCCCC/C=C/C1C=CC(CCCC)C(C(=O)O)C1C(=O)O)OC(=O)CCCCCCC/C=C/C=C/C=C/CCCC.OCCNCO (centres undefined)	inactive: 1.14
OC1CC2CCC(C1)N2 (centres undefined) [8-Azabicyclo(3.2.1)octan-3-ol]	active: 1.41
CC1=C(N2CC2)C(=O)c2nc3n(c2C1=O)CCC3OC(=O)CCl (centres undefined)	inactive: 1.12
C[n+]1ccc(-c2cc[n+](C)cc2)cc1 [Gramoxone]	inactive: 0.26
C1COCCN1.S=C(S)N1CCOCC1 [Morpholine-N-dithiocarbamate]	inactive: 1.17
[O-][n+]1ccccc1[S-].[O-][n+]1ccccc1[S-].[Zn+2] [ZINC;1-oxidopyridin-1-ium-2-thiolate]	inactive: 1.15
CC(=O)O[C@H]1C(=O)[C@@]2(C)[C@H]([C@H](OC(=O)c3ccccc3)[C@]3(O)C[C@H](O)C(C)=C1C3(C)C)[C@]1(OC(C)=O)CO[C@@H]1C[C@@H]2O [Baccatin III]	inactive: 0.18
CC1=C2C(=CC(C)(C)[C@@H]2O)C(=O)[C@](C)(O)C12CC2 [Illudin M]	inactive: 0.92
CC[C@@]1(O)C[C@H](O[C@H]2C[C@H](N(C)C)[C@H](O)[C@H](C)O2)c2c(cc3c(c2O)C(=O)c2c(O)ccc(O)c2C3=O)[C@H]1C(=O)OC	inactive: 0.9
CC1=C(N2CC2)C(=O)C(CO)=C(N2CC2)C1=O	inactive: 0.76

Among those listed so far, 2 have an NH in an aromatic ring.
Compound	Kcc2 promoter-driven luciferase activity
CCCCCC1=C/C(=C/c2[nH]c(-c3ccc[nH]3)cc2OC)N=C1C [Prodigiosin]	inactive: 1.01
Cc1c2ccncc2c(C)c2c1[nH]c1ccccc12 [Ellipticine]	inactive: 0.52

More entries:

Compound	Kcc2 promoter-driven luciferase activity
C[C@]12CC[C@H](O)C[C@H]1CC[C@@H]1[C@@H]2CC[C@]2(C)[C@@H](C3=CC(=O)OC3)CC[C@]12O [Digitoxigenin]	inactive: 0.38
NP(=O)(Oc1c2occc2cc2ccc(=O)oc12)N(CCCl)CCCl (centres undefined)	inactive: 1
CN1[C@@H]2C[C@@H](OC(=O)[C@H](CO)c3ccccc3)C[C@H]1[C@@H]1O[C@@H]12 [Scopolamine Hydrobromide]	inactive: 0.46
CCN1C[C@]2(COC)CC[C@H](O)[C@@]34C5C[C@@H]6[C@@H](OC)C[C@](O)(C(CC23)C14)C5[C@H]6OC(C)=O (some centres undefined) [Condelphine]	inactive: 1.17
COc1ccc(NC2=NCCO2)c2c1CCCC2	inactive: 0.62
CCOC(OC1=C(C#N)CCC1)C(C)[Se]c1ccccc1 (centres undefined)	inactive: 1.04
COc1cccc2c1cc([N+](=O)[O-])c1c(C(=O)O)cc3c(c12)OCO3 [Aristolochic Acid]	inactive: 0.68
CC[C@H]1CN2CCc3cc(OC)c(OC)cc3[C@@H]2C[C@@H]1C[C@H]1NCCc2c1[nH]c1ccc(O)cc21 [Tubulosine]	inactive: 0.0957
CCC[CH2][Sn]([CH2]CCC)([CH2]CCC)[O]c1cc(Cl)c(Cl)cc1Cl [Tributyl(2,5-trichlorophenoxy)tin]	inactive: 0.83
CC[C@H](C)c1occ2c(O)c(C(=O)O)c(=O)cc-2c1C [Ascochitine]	inactive: 1.16
COc1cc([C@@H]2c3cc4c(c(O)c3C[C@H]3COC(=O)[C@@H]32)OCO4)cc(OC)c1OC [Beta-Peltatin]	inactive: 0.4
O=C1N[C@H]2[C@H](O)[C@H](O)[C@@H](O)[C@H](O)[C@@H]2c2cc3c(c(O)c21)OCO3 [Pancratistatin]	inactive: 0.96
CCOC(=O)NC1=C(N2CC2)C(=O)C(NC(=O)OCC)=C(N2CC2)C1=O [Diaziquone]	inactive: 0.88
CC[C@@]1(O)C[C@H](O[C@H]2C[C@H](N(C)C)[C@H](O[C@H]3C[C@@H]4O[C@H]5CC(=O)[C@H](C)O[C@H]5O[C@@H]4[C@H](C)O3)[C@H](C)O2)c2c(cc3c(c2O)C(=O)c2c(O)ccc(O)c2C3=O)[C@H]1C(=O)OC [Cinerubin B hcl]	active: 1.28
CC1Oc2cc3c(-c4c(O)cc(O)c5c(O)c6c(cc45)OC(C)C(C)C6=O)c(O)cc(O)c3c(O)c2C(=O)C1C (centres undefined) [Chaetochromin]	active: 1.35
C/C=C(\C)C(=O)O[C@H]1C[C@@H](OC(C)=O)[C@@]2(C(=O)OC)CO[C@H]3[C@@H](O)[C@@](C)([C@]45O[C@@]4(C)[C@H]4C[C@@H]5O[C@@H]5OC=C[C@@]54O)[C@H]4[C@]1(CO[C@]4(O)C(=O)OC)[C@@H]32 [Azadirachtin]	inactive: 0.74
CCOC(=O)[C@H](CC(C)C)NC(=O)[C@H](Cc1ccc(N(CCCl)CCCl)cc1)NC(C)=O [Asaley]	inactive: 0.77
CC(=O)O[C@@H]1C[C@H]2O[C@@H]3C=C(C)CC[C@]3(C)[C@]1(C)[C@]21CO1 [Trichodermin]	inactive: 0.91 and inactive: 1.19
Cc1cc(N(CCCl)CCCl)ccc1/C=N/NC(=O)Cc1cc(=O)oc2cc(O)ccc12	inactive: 0.99

Some values from above:
Kcc2 promoter-driven luciferase activity with `CCOC(=O)NC1=C(N2CC2)C(=O)C(NC(=O)OCC)=C(N2CC2)C1=O` [Diaziquone] reads inactive: 0.88
Kcc2 promoter-driven luciferase activity with `CC[C@H](C)c1occ2c(O)c(C(=O)O)c(=O)cc-2c1C` [Ascochitine] reads inactive: 1.16
